According to patent US20250127753A1, “PHARMACEUTICAL APPLICATION OF DIMYRICETIN-YL-DISELENIDE IN TUMORS” (Shanghai Spark Pharmaceutical Co., Ltd., priority 2023, published 2025):

Tested on: SK-OV-3
Experiment: In vitro cell viability (CTG), SK-OV-3
Type: cell-based, Human
Conditions: SK-OV-3 cells, 72 hours, CTG assay
Method: Collect cells in the exponential growth phase and count viable cells separately using a cell counter. Adjust the cell suspension to an appropriate concentration with the corresponding culture medium. Add 90 μL of the cell suspension to each well of a 96-well cell culture plate, with 3 replicate wells containing 5000 cells/well. Place the plate in an incubator at 37° C. with 5% CO2 overnight.
On the second day, add 10 μL of dimyricetin diselenide and cisplatin to the corresponding wells. The highest final concentration of dimyricetin diselenide is 300 μg/ml (i.e., 379 μM), and the highest final concentration of cisplatin is 300 μM. A total of 9 concentrations are prepared with a 3-fold dilution.
After 72 hours, detect cell viability using the CTG assay.
Using GraphPad Prism 8.0 software, an S-shaped dose-survival curve was plotted with log (inhibitor) as the x-axis and response as the y-axis, adopting the Variable slope (four parameters) model to calculate the IC50 value.

With `N.N.[Cl][Pt][Cl]` [Cisplatin, reference compound] the IC50 was 18 µM.
